# Source: US20260028334A1, “N-(3-(BENZO[B]THIOPHENE-2-CARBOXAMIDO)-PHENYL)-2,3-DIHYDROBENZO[B][1,4]DIOXINE-6-CARBOXAMIDE DERIVATIVES AND RELATED COMPOUNDS AS LACTATE/ATP PRODUCTION INHIBITORS FOR THE TREATMENT OF CANCER” (WMT Aktiengesellschaft, priority 2022, published 2026)
# At least one structure is not confirmed: it was looked up by name or label, or the drawing left a doubt.
# Columns and labels:
# Type in all cases: cell-based
# lactate production = assay: Lactate production inhibition assay; conditions: summary of Table 1
# From the text: (§1) Recombinant Lactate Dehydrogenase A (LDHA) was used to convert lactate in tissue culture supernatants to pyruvate, with the concomitant reduction of NAD^+ to NADH. The electron acceptor 1-methoxyphenazine methosulfate (MPMS) was then reduced by the generated NADH, thereby regenerating NAD+. Reduced 1-methoxyphenazine methosulfate is used in turn to reduce Water Soluble Tetrazolium 8 (WST8) to an orange WST8 formazan product. The assay is adapted from the publication “Application of WST-8 based colorimetric NAD(P)H detection for quantitative dehydrogenase assays” described in Chamchoy et al., BMC Biochemistry (2019) 20(1):4.
# (§2) Cells were plated at 4,000 per well in 96-well plate in a medium of high glucose DMEM (PAN) supplemented with 10% FBS (PAN), 2 mM glutamine-alanine (PAN), 2 mM pyruvate (Sigma) and 10 mL/L penicillin-streptomycin (PAN) and grown at 37° C. in 0.5% O2, 5% CO2 and 75% humidity. For hypoxia, cells were grown and treated in the Whitley H35 Hypoxystation (Don Whitley Scientific) at 37° C. in 0.5% O2, 5% CO2 and 75% humidity. […] Thereafter, 80 μl of substrate mix is added to 20 μl of diluted cell supernatant in a 96-well flat-bottomed plate and the absorbance at 460 nm determined at one minute intervals over a 30 minute period. […]
# [1] = test system: HeLa, 4T1, LLC1, A549, MDA-MB-231 and MiaPaCa2 cells; assay: Assay for inhibition of ATP production (FIG. 1); conditions: 48 hours treatment, 1.5 to 10000 nM
# Method: (§3) The assay determines the amount of ATP in cells in culture.
# (§4) Cells were plated at 4,000 per well in 96-well plate in a medium of high glucose DMEM (PAN) supplemented with 10% FBS (PAN), 2 mM glutamine-alanine (PAN), 2 mM pyruvate (Sigma) and 10 mL/L penicillin-streptomycin and grown at 37° C. in 0.5% O2, 5% CO2 and 75% humidity. For hypoxia, cells were grown and treated in the Whitley H35 Hypoxystation (Don Whitley Scientific) at 37° C. in 0.5% O2, 5% CO2 and 75% humidity. The next day, cells were induced with test compounds (FIG. 1: compounds of examples 3/16, 3/8, 10 at 10000, 3333, 1111, 370, 123, 41, 14, 5 and 1.5 nM; FIGS. 8A and 8B: compounds of example 3/19, 30 and 30/2 at 10000, 3333, 1111, 370, 123, 41, 14, 5 and 1.5 nM), as well as with vehicle (DMSO) only, for 48 hours. After this time, the medium was removed from the cells and intracellular ATP levels were determined using the Promega CellTiter-Glo 2.0 assay protocol (Promega, G9241). To estimate the effect of compounds on the ATP production, sample values were compared to the values of DMSO only. IC50 values were generated by plotting the luciferase counts against compound concentration.
# Panc02 and SKOV3 cells [2] = assay: Assay for inhibition of ATP production (FIGS. 8A and 8B); conditions: 48 hours treatment, 1.5 to 10000 nM
# Method: as §3, §4
# [3] = test system: HeLa, 4T1, LLC1, A549, MDA-MB-231 and MiaPaCa2 cells; assay: Lactate production inhibition assay (FIG. 2); conditions: 48 hours treatment, 1.5 to 10000 nM
# From the text: as §1, §2
# Panc02 and SKOV3 cells [4] = assay: Lactate production inhibition assay (FIGS. 8C and 8D); conditions: 48 hours treatment, 1.5 to 10000 nM
# From the text: as §1, §2
# HeLa cells = assay: Lactate production inhibition assay, co-treatment with phenformin (FIG. 7); conditions: 48 hours co-treatment of phenformin (6.25-100 μM) with compound at 41, 14, 4.6 nM
# From the text: as §1, §2
# [5] = test system: ER stress markers CHAC, CHOP/DDIT3, XBP1 and SLC7A11; assay: Gene expression analysis by qPCR (FIG. 3); conditions: HeLa, 4T1, LLC1, A549, MDA-MB-231 and MiaPaCa2 cells, 10 nM, 0.5, 1, 2 and 4 hours
# Method: (§5) Cells were plated at 40,000 cells per ml in medium of high glucose DMEM (PAN) supplemented with 10% FBS (PAN), 2 mM glutamine-alanine (PAN), 2 mM pyruvate (Sigma) and 10 mL/L penicillin-streptomycin (PAN), and grown at 37° C. in 0.5% O2, 5% CO2 and 75% humidity. Next day, cells were induced with test compounds (FIG. 3: compounds of example 3/16, 3/8, 10 at 10 nM; FIG. 8E-8AB: compounds of example 3/16, 3/8, 10, 3/19, 30 and 30/2 at 10 nM) 0.5, 1, 2 and 4 hours, as well as with vehicle (DMSO) only. After this time, the cells were lysed according to protocol (Promega, SV 96 Total RNA Isolation System, #Z3505). After transferring the lysate to a 96-well-RNA binding plate, RNA was isolated and put at approx. 1 μg into cDNA synthesis using LunaScript RT SuperMix Kit (NEB, #E3010). The resulting cDNA was diluted 1:5 and used for qPCR Analysis (Taqman). Luna Universal Probe qPCR Master Mix (NEB, #M3004) is used as 2× reaction mix to which the diluted cDNA is added. The qPCR analysis was performed using QuantStudio™ 6 Flex real-time PCR systems (Thermo Fisher Scientific).
# (§6) A set of primers plus probe for each gene of interest was purchased at IDT (Integrated DNA Technologies).
# [6] = test system: ER stress markers CHAC and CHOP/DDIT3; assay: Gene expression analysis by qPCR (FIG. 8E-8AB); conditions: Panc02 and SKOV3 cells, 10 nM, 0.5, 1, 2 and 4 hours
# Method: as §5, §6
# HIF1a = HIF1a (Homo sapiens (Human), UniProt Q16665); assay: Western Blot analysis of HIF1a; conditions: HeLa cells, 24 hours, 0.1, 0.3 and 1 μM, normoxic and hypoxic conditions, FIG. 4
# Method: (§7) Western Blot analysis was used to detect amounts of specific protein in differently treated cells. Proteins are separated by size, transferred onto a nitrocellulose membrane and incubated with protein specific antibodies. The density of the observed band is proportional to the amount of the specific protein inside the cell.
# (§8) Cells were plated at 4×10^6 (for hypoxia) or 3×10^6 (for normoxia) cells per […] plate in medium of high glucose DMEM (PAN) supplemented with 10% FBS (PAN), 2 mM glutamine-alanine (PAN), 2 mM pyruvate (Sigma) and 10 ml/L penicillin-streptomycin (PAN), and grown at 37° C. in 0.5% O2, 5% CO2 and 75% humidity. For hypoxia, cells were grown and treated in the Whitley H35 Hypoxystation (Don Whitley Scientific) at 37° C. in 0.5% O2, 5% CO2 and 75% humidity. Next day, the cells were treated with test compounds (FIG. 4: compounds of example 3/8 and 10 at concentrations 0.1, 0.3 and 1 μM, Bafilomycin A at 20 nM; FIG. 5: compounds of example 3/16, 3/8 and 10 at concentrations 10, 30 and 100 nM, Bafilomycin A at 20 nM), as well as with vehicle (DMSO) only, for 24 h. […] Protein concentration of the sample was measured using the DC Protein Assay Kit (Biorad, 5000112), 22 μg of protein extract per well was loaded onto a precast SDS page gel (Biorad, 1704273). […] The chemiluminescence was measured using chemiluminescent substrate (#34580, Thermo Scientific).
# p62 = p62 (Homo sapiens (Human), UniProt Q13501); assay: Western Blot analysis of p62; conditions: HeLa cells, normoxic and hypoxic conditions
# Method: as §7, §8
# p70-S6K (Thr389) = p70-S6K (Thr389) (Homo sapiens (Human), UniProt P23443); assay: Western Blot analysis of p70-S6K phosphorylation; conditions: HeLa cells, 24 hours, 10, 30 and 100 nM, also with Bafilomycin A, normoxic condition, FIG. 5
# Method: as §7, §8
# [7] = test system: HeLa cell line expressing GFP-LC3; assay: Determination of autophagic flux; conditions: HeLa GFP-LC3 reporter cells, 24 hours of treatment, flow cytometry, FIG. 6
# From the text: A HeLa cell line stably expressing an artificial protein construct consisting of Green Fluorescent Protein (GFP) as an N-terminal fusion to the human full-length LC3 protein, placed in front of a Red Fluorescent Protein (RFP) as an N terminal fusion to human LC3 lacking its C-terminal Glycine residue (LC3DG), was used to determine autophagic flux (Kaizuka et al., Mol. Cell (2016) 17 835-849) This construct is cleaved in cells by ATG4 at the C-terminus of the full-length LC3 protein, whereupon the GFP-LC3 fragment becomes conjugated to phosphatidyl ethanolamine. The RFP-LC3DG cannot be lipidated, and can be used as an internal reference to produce ratiometric values reporting autophagic flux. The lipidated GFP-LC3 protein becomes incorporated into the membrane of autophagosomes, and upon fusion with lysosomes, is degraded. Consequently, cells with a high autophagic flux have less GFP-LC3, whereas a low autophagic flux results in a relatively higher intracellular amount of GFP-LC3.
# Reporter cells were grown as sub-confluent cultures and test compounds were applied at various concentrations. Thapsigargin, a known inducer of autophagy, was used as a positive control. After 24 hours of treatment, a single-cell suspension was prepared by trypsinization, and the GFP fluorescence determined by flow cytometry. A minimum of 10,000 single cells were evaluated for each condition.
smiles,measurement,setting,value
"Cc1ccc(NC(=O)c2ccc3c(c2)OCCO3)cc1NC(=O)c1cc2ccc(OCCO)cc2s1 [Example 10, N-(3-(6-(2-Hydroxyethoxy)benzo[b]thiophene-2-carboxamido)-4-methylphenyl)-2,3-diydrobenzo[b][1,4]dioxine-6-carboxamide]",activity in inhibiting production of ATP and/or lactate,lactate production,high activity
same,ATP production level,[1],dose-dependent reduction
same,ATP production level,Panc02 and SKOV3 cells [2],dose-dependent reduction
same,lactate production level,[3],dose-dependent reduction
same,lactate levels,Panc02 and SKOV3 cells [4],dose-dependent downregulation
same,lactate levels,HeLa cells,downregulation
same,"ER stress markers CHAC, CHOP/DDIT3, XBP1 and SLC7A11",[5],time-dependent upregulation
same,ER stress markers CHAC and CHOP/DDIT3,[6],time-dependent upregulation
same,HIF1a protein levels,HIF1a,dose-dependent reduction
same,p62 protein levels,"p62; 24 hours, 0.1, 0.3 and 1 μM, FIG. 4",dose-dependent reduction
same,p62,"p62; 24 hours, 10, 30 and 100 nM, also with Bafilomycin A, FIG. 5",dose-dependent reduction
same,p70-S6K phosphorylation (Thr389),p70-S6K (Thr389),dose-dependent induction
same,autophagic flux,[7],significantly enhance
